Test results taken from PMC7810945.
Results are given in words; binding and its absence hold for the method and conditions named. In cells and extracts the contact can be indirect. Binding can be weak; no strength is given. Sequences can lack the tags named with a protein.

Protein sequences, listed by entry. Tags and fused reporters are not part of them. Lines headed by an entry give the natural chain unless they say otherwise; changes in a name come on top.
UniProt P15806: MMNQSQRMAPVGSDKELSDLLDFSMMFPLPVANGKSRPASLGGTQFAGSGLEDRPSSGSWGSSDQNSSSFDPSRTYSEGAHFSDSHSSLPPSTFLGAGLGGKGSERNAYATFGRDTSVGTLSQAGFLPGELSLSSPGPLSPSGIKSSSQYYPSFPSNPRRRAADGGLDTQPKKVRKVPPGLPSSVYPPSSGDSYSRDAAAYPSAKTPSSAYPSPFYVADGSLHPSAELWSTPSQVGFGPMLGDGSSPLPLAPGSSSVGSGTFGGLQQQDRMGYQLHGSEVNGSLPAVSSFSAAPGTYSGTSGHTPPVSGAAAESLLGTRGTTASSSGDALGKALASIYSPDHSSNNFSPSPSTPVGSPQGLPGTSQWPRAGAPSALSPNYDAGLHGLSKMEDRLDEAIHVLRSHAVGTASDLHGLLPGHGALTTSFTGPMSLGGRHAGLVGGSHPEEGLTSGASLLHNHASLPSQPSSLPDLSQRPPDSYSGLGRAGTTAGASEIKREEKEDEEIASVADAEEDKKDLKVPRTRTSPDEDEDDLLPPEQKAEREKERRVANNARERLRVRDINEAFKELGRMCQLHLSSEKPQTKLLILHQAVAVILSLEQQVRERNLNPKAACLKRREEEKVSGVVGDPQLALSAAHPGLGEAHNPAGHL

Target: Flag‐E47 (UniProt P15806)
Test: co-IP; total lysates of transfected HEK293T cells or of transfected P19EC cells treated with 1 µmol/L ATRA for 24 h; anti‐Myc or anti‐FLAG antibody on Dynabeads protein G, 2 h at 4°C; 50 mmol/L Tris‐HCl pH 7.6, 150 mmol/L NaCl, 2 mmol/L EDTA, 0.5% NP‐40, 3% glycerol

binding: binds
B1: Myc‐STRA8 (pcDNA3‐Myc‐STRA8) in HEK293T cells (protein, UniProt P70278 1-393)
chain: MATPGEGNQPSDDGAPQPLAQLQKLEPRVVRRRLSQARHRATLVGLFNNLRKAVYSQSDITASKWQVLNRTKIHIQEQEESLDKLLKLKASFNLQDGNPNSLEEVKEEYARMYSENDSVFLNSFLQDSPPEWFPSEAVGPDAEEEGEEEGEEEGEEGEEEEEGDEEGEEEEENGEEREVEEYQEEEEEEEEEEKKVDLSHSSSTLLPDLMEFERYLNFYKQTMDLLTMNSIISAHEVTLPIVSAAISHLWQTLSEEKKARLLQVWEQQHSAFADLTEACLELAGVEGSMKDSGVDSQGASCSLESTPEEILFEDAFDVASFLDKSEAQHMSNISAMFATCNSENPEEKFQLYIQIIEFFKSLGCVNTPLNQEPEPPDDDDAMLLKCLETFDDL
